Results from PMC4898930.
Results are given in words; binding and its absence hold for the method and conditions named. Binding seen in cells or lysates may run through a third protein. Some results given as binding are weak or reduced against the parent protein; the word gives no strength. Tags and fused reporters may be left off the sequences shown.

Amino acid sequences for entries named in this document (tags omitted).
UniProt Q8BXK9: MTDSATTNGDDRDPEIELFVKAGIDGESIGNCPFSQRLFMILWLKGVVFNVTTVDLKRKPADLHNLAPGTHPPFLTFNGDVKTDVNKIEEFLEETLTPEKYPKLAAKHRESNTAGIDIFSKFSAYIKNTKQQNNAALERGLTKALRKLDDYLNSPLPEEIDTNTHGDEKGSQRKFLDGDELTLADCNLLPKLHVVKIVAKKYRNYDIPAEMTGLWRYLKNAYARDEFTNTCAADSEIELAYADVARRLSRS

Biological target: CLIC5 (in CL4 cells) (UniProt Q8BXK9)
Assay: co-IP; CL4 cells transfected; immunoprecipitation with HA antibody, western blot to detect Myc-taperin

binding: binds
B1: Myc-taperin (protein, UniProt A2AI08 1-749)
chain: MAGLGRLDPGPRTVMPAWKREILERRRAKLAALSGGQGSGAAPDGPNERLVLAESLGPLSQNPFMRLESERRRGTRPAQQLLELYCRVPGVRTIRADNILIIESAPGFPPAVPPAAGIRAAEVVVYEAPQPGRVSRLLEKFDSPAAPCRRGSPERFRPALPQLPVASASAATRTPTNRSLAPASPVRLSQPAPPISPVPVAQRAGQRSACCEPAHPDGTAGPGARRSDFLQKTGSNSFTVHPRGLPRSAVNRSLSNGPMTQESPTGPANGLSGSPPVPGKWKPKVESKEPSLHPPPSPGTPSATSVGPPAFPAPSPASATPSQRQWVSSATSANDSFEIRPSSKPDMETIPIGDLQARALANLRVNSRNSFVLIPKRKAPGNYPLAGRQFEEPKGEVGWASQSQGLGSQLVSTVDGAPALEKSPLAAEMQWAVRKGACPRPAISDTDKCVRWQRPASPPPFLPATAEAEPAEGLGVPGLAKNGQEPVRPGLPVTFIDEVDSEEEAFQEAKLPSSAVGVPSQYHLHPARPGHTSELLNRGSNTFTVVPKRKPGTLQEPHLSQTNGQSQQGAEEQDAESLSGPHTTLENTLKKRYPTVHEIEVIGGYLALQKSCLIKAGSSRKKMKISFNDKSLHTTFEYPSESSLAQEEAEEEEEEEGEEDGEEEEVGPDSEKPFTVFLPRATFVSSVGPESSSGLSSYTPKHSMAFSKWQEQTLVQTPTDVELPPKEVMLTPASQNDLSDFRSEPALYF
